Test results from PMC10291802.
Results are given in words; binding and its absence hold for the method and conditions named. In cells and extracts the contact can be indirect. Some entries that bind do so weakly or less than the wild type.

The chains behind the UniProt entries cited, without tags or fusion partners. Residues count along the entry.
UniProt P17936, residues 28-291: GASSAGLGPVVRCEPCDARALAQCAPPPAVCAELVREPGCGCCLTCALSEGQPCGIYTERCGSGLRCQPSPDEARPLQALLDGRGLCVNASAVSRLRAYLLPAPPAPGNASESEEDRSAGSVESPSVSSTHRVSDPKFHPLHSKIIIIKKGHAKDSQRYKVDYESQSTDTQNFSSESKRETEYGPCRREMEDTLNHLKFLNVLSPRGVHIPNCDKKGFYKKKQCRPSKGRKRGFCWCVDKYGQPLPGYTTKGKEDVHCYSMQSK

Biological target: Insulin-like growth factor binding protein 3 (not stated (human or mouse cDNA cloned)) (UniProt P17936)
Assay: co-IP; total protein from IGFBP3-over hDPSCs 72 h post-transfection; lysate incubated with mouse anti-IGFBP3 (2 ug, sc-374365) or mouse IgG at 4 °C overnight, Protein A/G magnetic beads 2 h at 4 °C; blotted with rabbit anti-IGFBP3 and anti-DKK1

binding: binds
B1: Dickkopf-related protein 1 (protein, UniProt O94907 32-266)
chain: TLNSVLNSNAIKNLPPPLGGAAGHPGSAVSAAPGILYPGGNKYQTIDNYQPYPCAEDEECGTDEYCASPTRGGDAGVQICLACRKRRKRCMRHAMCCPGNYCKNGICVSSDQNHFRGEIEETITESFGNDHSTLDGYSRRTTLSSKMYHTKGQEGSVCLRSSDCASGLCCARHFWSKICKPVLKEGQVCTKHRRKGSHGLEIFQRCYCGEGLSCRIQKDHHQASNSSRLHTCQRH
